Reference: patent publication US20020061838A1, “Peptide pharmaceutical formulations” (priority 2000, published 2002)
Not every detail of the peptide structures is certain; ends, links or a residue may be inferred.

How the values were obtained:
[1] = Long-term stability in the preferred embodiment (HPLC and/or bioactivity); settings: in excess of 10,000 vials; −20° C., 4° C., and 25° C.
[2] = Blood glucose after injection of GLP-1 in a human subject; assay type: in vivo

CC[C@H](C)[C@H](NC(=O)[C@H](Cc1ccccc1)NC(=O)[C@H](CCC(=O)O)NC(=O)[C@H](CCCCN)NC(=O)[C@H](C)NC(=O)[C@H](C)NC(=O)[C@H](CCC(N)=O)NC(=O)CNC(=O)[C@H](CCC(=O)O)NC(=O)[C@H](CC(C)C)NC(=O)[C@H](Cc1ccc(O)cc1)NC(=O)[C@H](CO)NC(=O)[C@H](CO)NC(=O)[C@@H](NC(=O)[C@H](CC(=O)O)NC(=O)[C@H](CO)NC(=O)[C@@H](NC(=O)[C@H](Cc1ccccc1)NC(=O)[C@@H](NC(=O)CNC(=O)[C@H](CCC(=O)O)NC(=O)[C@H](C)NC(=O)[C@@H](N)Cc1c[nH]cn1)[C@@H](C)O)[C@@H](C)O)C(C)C)C(=O)N[C@@H](C)C(=O)N[C@@H](Cc1c[nH]c2ccccc12)C(=O)N[C@@H](CC(C)C)C(=O)N[C@H](C(=O)N[C@@H](CCCCN)C(=O)NCC(=O)N[C@@H](CCCNC(=N)N)C(N)=O)C(C)C [GLP-1, GLP-1(7-36)amide]
period over which formulations have been stable [1]: ≥ 9 months
time for blood glucose to fall to euglycemic levels after injection [2]: ≤ 10 min
